# Assay results taken from article PMC9410875.
# Protein sequences, listed by entry. Tags and fused reporters are not part of them. Lines headed by an entry give the natural chain unless they say otherwise; changes in a name come on top.
# UniProt P55317: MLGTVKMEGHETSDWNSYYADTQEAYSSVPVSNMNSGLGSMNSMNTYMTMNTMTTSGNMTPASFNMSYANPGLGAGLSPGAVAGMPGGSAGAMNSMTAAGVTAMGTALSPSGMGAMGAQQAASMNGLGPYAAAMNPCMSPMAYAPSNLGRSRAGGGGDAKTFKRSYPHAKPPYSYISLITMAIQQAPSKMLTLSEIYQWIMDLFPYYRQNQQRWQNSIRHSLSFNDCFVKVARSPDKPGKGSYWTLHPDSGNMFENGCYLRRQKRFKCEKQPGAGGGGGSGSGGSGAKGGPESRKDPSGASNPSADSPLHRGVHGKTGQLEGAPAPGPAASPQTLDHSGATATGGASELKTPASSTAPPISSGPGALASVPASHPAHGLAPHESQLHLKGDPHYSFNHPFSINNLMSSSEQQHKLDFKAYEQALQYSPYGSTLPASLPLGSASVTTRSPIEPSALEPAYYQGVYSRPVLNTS
# Numbering of substitutions follows the chain as printed. The comparison behind a weaker result is the experiment's own reference, which may not be listed here. For part of these data: Where a protein sequence is shown, tags need not be part of it. For part of these data: For at least one entry, the source does not settle the construct or the ends of the probe.
# Columns and labels:
# FOXL2-DBD (Homo sapiens) [1] = target: T1, FOXL2-DBD (Homo sapiens) (UniProt P58012); assay: ITC; conditions: binding greatly weakened; ITC: 20 mM HEPES pH 7.5, 150 mM NaCl, 10 mM MgCl2, 298 K; recombinant protein; residues 52-148; protein details: GST tag cleaved by TEV
# T1 sequence (looked up): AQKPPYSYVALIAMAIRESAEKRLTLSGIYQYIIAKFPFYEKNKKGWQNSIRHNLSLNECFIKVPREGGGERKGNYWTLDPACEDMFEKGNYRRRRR
# FOXL2-DBD (Homo sapiens) [2] = target: T1, FOXL2-DBD (Homo sapiens); assay: EMSA; conditions: EMSA: 2.5 uM DNA, 20 mM HEPES pH 7.5, 50 mM KCl, 10 mM MgCl2, 1 mM DTT, 10% glycerol, on ice 30 min, FOXA1 EMSA: 20 mM Tris-HCl pH 8.0, 0.1 mg/ml BSA, 50 uM ZnCl2, recombinant protein, residues 52-148, protein details: GST tag cleaved by TEV
# FOXA1-DBD S174A/S177A = target: T2, FOXA1-DBD S174A/S177A (UniProt P55317); assay: EMSA; conditions: significantly compromised; EMSA: 2.5 uM DNA, 20 mM HEPES pH 7.5, 50 mM KCl, 10 mM MgCl2, 1 mM DTT, 10% glycerol, on ice 30 min; FOXA1 EMSA: 20 mM Tris-HCl pH 8.0, 0.1 mg/ml BSA, 50 uM ZnCl2; recombinant protein; residues 168-264; label: 5' Cy3 on strand 1 (legends say Cy5)
# T2 sequence (looked up): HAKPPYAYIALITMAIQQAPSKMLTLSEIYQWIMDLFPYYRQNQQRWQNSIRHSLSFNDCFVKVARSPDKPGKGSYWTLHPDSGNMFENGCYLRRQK
# FOXA1-DBD = FOXA1-DBD (UniProt P55317); assay: EMSA; conditions: 50 mM EDTA (Mg2+ depleted), dimer shift significantly reduced; EMSA: 2.5 uM DNA, 20 mM HEPES pH 7.5, 50 mM KCl, 10 mM MgCl2, 1 mM DTT, 10% glycerol, on ice 30 min; FOXA1 EMSA: 20 mM Tris-HCl pH 8.0, 0.1 mg/ml BSA, 50 uM ZnCl2; recombinant protein; residues 168-264; protein details: GST tag cleaved by TEV; label: 5' Cy3 on strand 1 (legends say Cy5)
# FOXA1-DBD Y173A/S177A = target: T3, FOXA1-DBD Y173A/S177A (UniProt P55317); assay: EMSA; conditions: significantly compromised; EMSA: 2.5 uM DNA, 20 mM HEPES pH 7.5, 50 mM KCl, 10 mM MgCl2, 1 mM DTT, 10% glycerol, on ice 30 min; FOXA1 EMSA: 20 mM Tris-HCl pH 8.0, 0.1 mg/ml BSA, 50 uM ZnCl2; recombinant protein; residues 168-264; label: 5' Cy3 on strand 1 (legends say Cy5)
# T3 sequence (looked up): T2 sequence (looked up) with Y6A, A7S
sequence,measurement,setting,value
AAACCCCCCCTATCGA (double strand) [p53 mut1 16 bp (ITC)],binding result,FOXL2-DBD (Homo sapiens) [1],binds more weakly
TCAAAAAACCCCCCCTATCGAGCTCT (double strand) [p53 mut1 26 bp],binding result,"FOXL2-DBD (Homo sapiens) [2]; weak monomer shift only, dimer lost, label: 5' Cy3 on strand 1 (legend says Cy5)",binds more weakly
TCAAAAAATATTTATCTATCGAGCTCT (double strand) [p53 S1 (1 bp spacer)],binding result,"FOXL2-DBD (Homo sapiens) [2]; dimer shift significantly reduced, label: 5' Cy3 on strand 1",binds more weakly
TCAAAAAATATTTATTATCGAGCTCT (double strand) [p53-DNA 26 bp (S0)],binding result,FOXA1-DBD S174A/S177A,binds more weakly
same,binding result,FOXA1-DBD,binds more weakly
same,binding result,FOXA1-DBD Y173A/S177A,binds more weakly
